The target of the assay is GFP-SYD-2 SAM(844–1139) (C. elegans) (UniProt Q21049). In words: pull-down; 1 ug of each purified GFP construct pre-bound to GFP-trap agarose beads in 20 mM Tris (pH 7.4), 500 mM NaCl, 5 mM beta-mercaptoethanol; select GFP samples pre-phosphorylated by SAD-1; 1 ug of each MBP-conjugated prey incubated 1 h; beads washed sparingly; SDS gel stained with Coomassie; both purified.

No constants are given. Whether binding was seen depends on the method and setting. Tags and fused reporters may be left off the sequences shown.

B1: MBP-SYD-2 IDR(517–843) (domain or fragment, UniProt Q21049 517-843)
chain: QSRMHAIPFTHAQNIVQQQPQASIAQQSAYQMYKQQPAQQYQTVGMRRPNKGRISALQDDPNKVQTLNEQEWDRLQQAHVLANVQQAFSSSPSLADVGQSTLPRPNTAVQHQQDDMMNSGMGMPSGMQGGMQGGMGGGQDAQMLASMLQDRLDAINTEIRLIQQEKHHAERVAEQLERSSREFYDDQGISTRSSPRASPQLDNMRQHKYNTLPANVSGDRRYDIYGNPQFVDDRMVRDLDYEPRRGYNQFDEMQYERDRMSPASSVASSTDGVLGGKKKRSNSSSGLKTLGRFFNKKKNSSSDLFKRNGDYSDGEQSGTEGNQKADY
Take B1: the binding entry is on record as “no binding (tested: 1 μg of each MBP-conjugated prey protein)”.
